Measured values from the supplement of paper PMC8612539.
≈ marks a conversion by molar mass, not a printed value. The source gives many values for each of these; only a part stands here.

System: Mannheimia haemolytica
Experiment: minimum inhibitory concentration (MIC)
Experimental: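 Broth microdilution MIC (Sensititre BOPO7F bovine plate, CLSI methods) of 19 antimicrobials against field isolates of P. multocida, M. haemolytica, H. somni (deep nasopharyngeal swabs) and E. coli, Enterococcus spp. (rectal swabs) from weaned dairy heifers. Incubation 16-24 h at 35 C. MIC is the lowest concentration preventing visible growth. Values with <= or > lie at the tested range limits. Trimethoprim-sulfamethoxazole is given as the trimethoprim component of a 1:19 mixture.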

Row | SMILES | minimum inhibitory concentration (isolate (source animal id): 3) [µg/mL] | minimum inhibitory concentration (isolate (source animal id): 60) [µg/mL] | minimum inhibitory concentration (isolate (source animal id): 61) [µg/mL] | minimum inhibitory concentration (isolate (source animal id): 64) [µg/mL] | minimum inhibitory concentration (isolate (source animal id): 65) [µg/mL] | minimum inhibitory concentration (isolate (source animal id): 66) [µg/mL] | minimum inhibitory concentration (isolate (source animal id): 67) [µg/mL] | minimum inhibitory concentration (isolate (source animal id): 68) [µg/mL] | minimum inhibitory concentration (isolate (source animal id): 70) [µg/mL] | minimum inhibitory concentration (isolate (source animal id): 72) [µg/mL] | minimum inhibitory concentration (isolate (source animal id): 74) [µg/mL] | minimum inhibitory concentration (isolate (source animal id): 76) [µg/mL] | minimum inhibitory concentration (isolate (source animal id): 80) [µg/mL] | minimum inhibitory concentration (isolate (source animal id): 82) [µg/mL] | minimum inhibitory concentration (isolate (source animal id): 83) [µg/mL] | minimum inhibitory concentration (isolate (source animal id): 84) [µg/mL] | minimum inhibitory concentration (isolate (source animal id): 85) [µg/mL] | minimum inhibitory concentration (isolate (source animal id): 86) [µg/mL] | minimum inhibitory concentration (isolate (source animal id): 87) [µg/mL]
1 | CC1(C)S[C@@H]2[C@H](NC(=O)Cc3ccccc3)C(=O)N2[C@H]1C(=O)O [Penicillin] | 0.25 (≈ 0.748 µM) | 0.25 (≈ 0.748 µM) | > 8 | 0.25 (≈ 0.748 µM) | > 8 | 0.25 (≈ 0.748 µM) | 0.25 (≈ 0.748 µM) | 0.25 (≈ 0.748 µM) | 0.5 (≈ 1.5 µM) | 0.25 (≈ 0.748 µM) | > 8 | ≤ 0.12 | > 8 | 0.25 (≈ 0.748 µM) | 0.5 (≈ 1.5 µM) | 0.5 (≈ 1.5 µM) | ≤ 0.12 | ≤ 0.12 | ≤ 0.12
2 | CN[C@@H]1[C@H](O)[C@H](NC)[C@H]2O[C@@]3(O)C(=O)C[C@@H](C)O[C@H]3O[C@@H]2[C@H]1O [Spectinomycin] | 32 (≈ 96.3 µM) | > 64 | 32 (≈ 96.3 µM) | 32 (≈ 96.3 µM) | 32 (≈ 96.3 µM) | > 64 | 16 (≈ 48.1 µM) | 32 (≈ 96.3 µM) | > 64 | 32 (≈ 96.3 µM) | 32 (≈ 96.3 µM) | 32 (≈ 96.3 µM) | > 64 | > 64 | 32 (≈ 96.3 µM) | 32 (≈ 96.3 µM) | > 64 | > 64 | > 64
3 | CN(C)[C@@H]1C(O)=C(C(N)=O)C(=O)[C@@]2(O)C(O)=C3C(=O)c4c(O)cccc4[C@@](C)(O)[C@H]3C[C@@H]12 [Tetracycline] | > 8 | > 8 | > 8 | > 8 | > 8 | 8 (≈ 18 µM) | > 8 | > 8 | > 8 | > 8 | > 8 | > 8 | > 8 | > 8 | ≤ 0.5 | > 8 | > 8 | 8 (≈ 18 µM) | > 8
4 | C=C[C@]1(C)C[C@@H](OC(=O)CSCCN(CC)CC)[C@]2(C)[C@H](C)CC[C@]3(CCC(=O)[C@H]32)[C@@H](C)[C@@H]1O [Tiamulin] | 8 (≈ 16.2 µM) | 32 (≈ 64.8 µM) | 8 (≈ 16.2 µM) | 8 (≈ 16.2 µM) | 8 (≈ 16.2 µM) | 16 (≈ 32.4 µM) | 8 (≈ 16.2 µM) | 8 (≈ 16.2 µM) | 8 (≈ 16.2 µM) | 8 (≈ 16.2 µM) | 8 (≈ 16.2 µM) | 8 (≈ 16.2 µM) | 16 (≈ 32.4 µM) | 8 (≈ 16.2 µM) | 16 (≈ 32.4 µM) | 32 (≈ 64.8 µM) | 16 (≈ 32.4 µM) | 16 (≈ 32.4 µM) | 16 (≈ 32.4 µM)
5 | CC[C@H]1OC(=O)C[C@@H](O)[C@H](C)[C@@H](O[C@@H]2O[C@H](C)[C@@H](O)[C@H](N(C)C)[C@H]2O)[C@@H](CCN2CCCCC2)C[C@@H](C)C(=O)/C=C/C(C)=C/[C@@H]1CN1CCCCC1 [Tildipirosin] | ≤ 1 | > 16 | > 16 | ≤ 1 | > 16 | > 16 | > 16 | ≤ 1 | > 16 | ≤ 1 | > 16 | ≤ 1 | 8 (≈ 10.9 µM) | > 16 | ≤ 1 | > 16 | 16 (≈ 21.8 µM) | 16 (≈ 21.8 µM) | 16 (≈ 21.8 µM)
6 | CC[C@H]1OC(=O)C[C@@H](O)[C@H](C)[C@@H](O[C@@H]2O[C@H](C)[C@@H](O)[C@H](N(C)C)[C@H]2O)[C@@H](CCN2C[C@H](C)C[C@H](C)C2)C[C@@H](C)C(=O)/C=C/C(C)=C/[C@@H]1CO[C@@H]1O[C@H](C)[C@@H](O)[C@@H](OC)[C@H]1OC [Tilmicosin] | 4 (≈ 4.6 µM) | > 16 | > 16 | 4 (≈ 4.6 µM) | > 16 | > 16 | > 16 | 4 (≈ 4.6 µM) | > 16 | 4 (≈ 4.6 µM) | > 16 | 4 (≈ 4.6 µM) | 16 (≈ 18.4 µM) | > 16 | 8 (≈ 9.2 µM) | > 16 | 16 (≈ 18.4 µM) | 16 (≈ 18.4 µM) | 16 (≈ 18.4 µM)
7 | CCCNC[C@]1(O)[C@H](C)O[C@@H](O[C@H]2[C@H](C)[C@@H](O[C@@H]3O[C@H](C)C[C@H](N(C)C)[C@H]3O)[C@](C)(O)C[C@@H](C)CN[C@H](C)[C@@H](O)[C@](C)(O)[C@@H](CC)OC(=O)[C@@H]2C)C[C@@]1(C)OC [Tulathromycin] | ≤ 8 | > 64 | 32 (≈ 39.7 µM) | ≤ 8 | 32 (≈ 39.7 µM) | > 64 | 32 (≈ 39.7 µM) | ≤ 8 | > 64 | ≤ 8 | 32 (≈ 39.7 µM) | ≤ 8 | 16 (≈ 19.8 µM) | > 64 | ≤ 8 | > 64 | 16 (≈ 19.8 µM) | 16 (≈ 19.8 µM) | 16 (≈ 19.8 µM)
8 | CC[C@H]1OC(=O)C[C@@H](O)[C@H](C)[C@@H](O[C@@H]2O[C@H](C)[C@@H](O[C@H]3C[C@@](C)(O)[C@@H](O)[C@H](C)O3)[C@H](N(C)C)[C@H]2O)[C@@H](CC=O)C[C@@H](C)C(=O)/C=C/C(C)=C/[C@@H]1CO[C@@H]1O[C@H](C)[C@@H](O)[C@@H](OC)[C@H]1OC [Tylosin] | 32 (≈ 34.9 µM) | > 32 | > 32 | 32 (≈ 34.9 µM) | > 32 | > 32 | > 32 | 32 (≈ 34.9 µM) | > 32 | > 32 | > 32 | 32 (≈ 34.9 µM) | > 32 | > 32 | > 32 | > 32 | > 32 | > 32 | > 32
9 | COc1cc(NS(=O)(=O)c2ccc(N)cc2)nc(OC)n1 [sulfadimethoxine] | > 256 | > 256 | > 256 | > 256 | > 256 | > 256 | > 256 | > 256 | > 256 | > 256 | > 256 | > 256 | > 256 | > 256 | ≤ 256 | > 256 | > 256 | > 256 | > 256
